Values from PubChem BioAssay AID1259264 (Sanger Institute, 2017).

Purpose: 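Kinases whose loss cuts CL40 colorectal cancer cell survival, alone or with drugs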 (primary screen)
Cells: CL40 human colorectal cancer cells
Reagent: siRNA pool against human genes
Treatment: DMSO, or an anchor drug: BYL719 at 1 µM, cetuximab at 5 µg/ml, or trametinib at 10 nM
Measurement: 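Replicate-mean viability versus a non-targeting pool, robust z-score from control wells, and mean synergy with BYL719 1 µM, cetuximab 5 µg/ml or trametinib 10 nM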
Direction: robust z-score, siRNA alone and viability, siRNA alone: higher = more viable cells; synergy score with BYL719: higher = stronger combined killing with BYL719; synergy score with cetuximab: higher = stronger combined killing with cetuximab; synergy score with trametinib: higher = stronger combined killing with trametinib
Call rule: 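a gene counts as essential when knock-down without drug gives a robust z-score below -3, meaning fewer cells; synergy scores play no part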
Calls: active = essential (lowers viability alone); inactive = not essential
In all, the deposit lists 794 reagents; this is a part drawn at random. Of all reagents, 15 (1.9%) are marked active. 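Calls rest on knock-down alone at z-score below -3; synergy scores with the three drugs do not decide them.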 Unmarked entries are inactive. No viability above 1 is reported: the scale is capped. Not given: the amount of reagent, the time to read-out.

The first 3 records, to show the layout:
no.	Target gene	robust z-score, siRNA alone	viability, siRNA alone (fraction of control)	synergy score with BYL719	synergy score with cetuximab	synergy score with trametinib
1	GSK3B	0.436	0.993	-0.119	-0.0247	0.0257
2	NAGK	-2.97	0.749	-0.0839	-0.218	-0.0262
3	BMPR1B	0.539	1	-0.106	-0.0174	0.118

Main list, from the start:
no.	Target gene	robust z-score, siRNA alone	viability, siRNA alone (fraction of control)	synergy score with BYL719	synergy score with cetuximab	synergy score with trametinib
1	GSK3B	0.436	0.993	-0.119	-0.0247	0.0257
2	NAGK	-2.97	0.749	-0.0839	-0.218	-0.0262
3	BMPR1B	0.539	1	-0.106	-0.0174	0.118
4	CAMK2A	0.13	0.971	-0.105	-0.0337	0.0714
5	PIK3R5	0.327	0.985	-0.0654	-0.0323	0.15
6	SYNCRIP	-0.0131	0.96	0.0754	-0.0134	0.0888
7	SOX9	0.415	0.991	0.0135	-0.0262	0.0535
8	RBM10	-0.444	0.929	-0.0907	-0.0528	0.142
9	PRKDC	-1.35	0.865	-0.174	-0.133	0.029
10	MTOR	-1.41	0.861	-0.0722	0.0113	0.101
11	NEK1	0.197	0.975	-0.123	-0.0415	0.0759
12	MAPK11	0.539	1	-0.124	-0.0174	0.106
13	GUCY2D	-6.32 (active)	0.508	-0.0947	-0.0628	0.0531
14	MAPK1	0.301	0.983	0.11	0.0333	0.1
15	TSSK1B	0.539	1	-0.144	-0.0174	0.147
16	PIP5K1C	0.539	1	-0.114	0.103	0.0751
17	CTNNB1	0.539	1	0.0973	0.00482	-0.048
18	RIPK4	0.455	0.994	-0.000277	-0.0233	0.064
19	CSNK2A2	0.539	1	-0.139	-0.00605	0.0937
20	IRAK3	-1.6	0.847	-0.0956	-0.133	0.0434
21	NF1	0.539	1	-0.127	0.0521	-0.0773
22	AAK1	-0.232	0.945	0.00227	-0.0196	-0.00368
23	ROR2	0.539	1	-0.107	-0.0174	0.0515
24	EPHA5	0.539	1	-0.156	-0.0174	0.0249
25	ERBB4	0.539	1	-0.0976	-0.0174	0.129
26	NEK4	-0.0683	0.956	-0.0488	-0.0499	0.0775
27	CILK1	0.539	1	-0.139	-0.0174	0.0462
28	YES1	0.539	1	-0.0463	-0.0174	0.0807
29	CDC7	0.385	0.989	-0.0864	0.0425	0.0785
30	CKMT2	-0.211	0.946	-0.148	-0.0702	0.101
31	PIKFYVE	-0.648	0.915	-0.0722	-0.0345	0.0807
32	TAB1	0.015	0.962	-0.0948	0.0715	0.0775
33	RUNX1	-1.11	0.882	-0.0927	-0.0172	0.137
34	KDR	0.539	1	-0.0285	-0.0174	0.00804
35	PRPS1L1	0.539	1	-0.156	-0.0174	0.109
36	MOS	-0.303	0.94	-0.144	0.0819	0.0977
37	PRPS2	0.539	1	-0.156	-0.0174	-0.0841
38	CDK11A	-2.91	0.753	-0.108	-0.0432	-0.0472
39	PI4KA	0.539	1	-0.0574	-0.0174	0.164
40	GRK6	0.539	1	-0.156	0.000218	0.109
41	TP53	0.326	0.985	-0.0241	0.0146	0.195
42	MAP2K4	0.539	1	-0.0621	-0.0174	0.124
43	CKS2	0.539	1	-0.0122	-0.0174	0.0483
44	PHKG2	0.292	0.982	-0.0491	-0.0108	0.0149
45	SCYL1	0.539	1	-0.156	-0.0174	-0.177
46	CDK13	0.539	1	-0.101	-0.0174	-0.0435
47	CKB	0.539	1	-0.156	-0.0174	0.1
48	MAP3K10	0.539	1	-0.111	-0.00158	0.0784
49	STK36	0.539	1	-0.156	0.0146	0.153
50	DIS3	-0.615	0.917	-0.07	-0.0302	-0.0573
51	PBK	0.539	1	-0.0299	-0.0174	0.0267
52	FOXP1	0.0332	0.964	0.0371	0.0559	0.184
53	DGKH	0.539	1	0.0201	0.0887	0.133
54	PDK1	0.0561	0.965	0.0244	0.0145	0.035
55	BCR	-0.978	0.891	-0.101	-0.084	0.0769
56	CHUK	-0.00493	0.961	-0.0924	-0.0484	-0.0581
57	MAST1	0.539	1	0.0656	-0.0164	0.0625
58	MAP3K9	-2.23	0.802	-0.016	-0.203	-0.0313
59	PRKAG3	-2.77	0.763	-0.055	0.0433	0.0665
60	PKIA	-0.2	0.947	-0.0367	-0.043	0.102
61	PRKAB1	-1.25	0.872	-0.0576	-0.00723	0.0442
62	CSK	0.539	1	-0.136	-0.0174	0.054
63	RET	0.539	1	-0.156	-0.0174	0.11
